Source: PubChem BioAssay AID1259307 (Sanger Institute, 2017)
The whole screen tested 794 reagents; this is a part drawn at random. In the full data, 15 (1.9%) were called active. 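Calls reflect lethality without any drug; synergy scores did not enter the calls.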 Reagents against one gene are numbered here. No viability above 1 is reported: the scale is capped. The record does not give: the amount of reagent, the time to read-out.

Test: 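Identify kinases needed for SW620 growth or enhancing BYL719, cetuximab or trametinib effects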 (primary screen)
System: SW620 colorectal cancer cells
Knock-down reagent: siRNA pool against human genes
Treatment: anchor drugs BYL719 at 1 µM, cetuximab at 5 µg/ml or trametinib at 10 nM, each beside a DMSO vehicle arm
Measured: 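Cell viability in each well relative to non-targeting controls, averaged over replicates and turned into a robust z-score; synergy with BYL719 (1 µM), cetuximab (5 µg/ml), trametinib (10 nM) versus DMSO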
Direction: viability robust z-score, no drug and viability vs control, no drug: higher = more viable cells; synergy score with BYL719 and synergy score with cetuximab and synergy score with trametinib: higher = stronger synthetic lethality with the drug
Rule for the call: 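a knock-down counts as lethal alone if its drug-free robust viability z-score is lower than -3, regardless of synergy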
Meaning of the calls: active = essential (lethal alone); inactive = no change alone

target | reagent no. | viability robust z-score, no drug | viability vs control, no drug | synergy score with BYL719 | synergy score with cetuximab | synergy score with trametinib | activity call
PIM1 (Pim-1 proto-oncogene, serine/threonine kinase) | 1 | -2.05 | 0.743 | -0.114 | -0.257 | -0.0322 | inactive
PAK3 (p21 (RAC1) activated kinase 3) | 1 | -0.203 | 0.913 | -0.00451 | 0.0276 | 0.0869 | inactive
CHUK | 1 | -0.275 | 0.907 | 0.124 | 0.0524 | 0.0277 | inactive
EPHB3 (EPH receptor B3) | 1 | 0.0915 | 0.941 | -0.146 | 0.00988 | 0.128 | inactive
EPHA4 (EPH receptor A4) | 1 | 0.736 | 1 | -0.03 | 0 | -0.00711 | inactive
SKAP1 (src kinase associated phosphoprotein 1) | 1 | 0.433 | 0.972 | -0.0807 | -0.013 | -0.0602 | inactive
MAPK6 (mitogen-activated protein kinase 6) | 1 | -0.0953 | 0.923 | -0.00304 | 0.0465 | 0.106 | inactive
NR4A2 (nuclear receptor subfamily 4 group A member 2) | 1 | -0.597 | 0.877 | 0.0259 | 0.0377 | 0.0653 | inactive
SCYL1 (SCY1 like pseudokinase 1) | 1 | -0.581 | 0.878 | -0.0281 | -0.122 | -0.278 | inactive
PI4KB (phosphatidylinositol 4-kinase beta) | 1 | -1.45 | 0.798 | -0.213 | -0.202 | -0.158 | inactive
AGK (acylglycerol kinase) | 1 | 0.736 | 1 | -0.0919 | 0 | -0.156 | inactive
DYRK3 (dual specificity tyrosine phosphorylation regulated kinase 3) | 1 | -0.0105 | 0.931 | -0.0858 | 0.0708 | -0.1 | inactive
BRD4 (bromodomain containing 4) | 1 | 0.736 | 1 | -0.0351 | 0 | 0.0106 | inactive
WNK2 (WNK lysine deficient protein kinase 2) | 1 | 0.148 | 0.946 | -0.0313 | -0.0542 | -0.049 | inactive
RNASEL (ribonuclease L) | 1 | -0.0146 | 0.931 | -0.0259 | -0.0693 | -0.0481 | inactive
PIP4K2A (phosphatidylinositol-5-phosphate 4-kinase type 2 alpha) | 1 | 0.137 | 0.945 | -0.0778 | -0.0553 | -0.0888 | inactive
MAP2K7 (mitogen-activated protein kinase kinase 7) | 1 | 0.554 | 0.983 | -0.0374 | -0.0152 | 0.1 | inactive
MELK (maternal embryonic leucine zipper kinase) | 1 | 0.736 | 1 | -0.0919 | 0.0124 | -0.0857 | inactive
PTPRU (protein tyrosine phosphatase receptor type U) | 1 | 0.567 | 0.984 | 0.0272 | 0.122 | 0.0521 | inactive
MAST3 (microtubule associated serine/threonine kinase 3) | 1 | 0.736 | 1 | 0.0326 | 0 | 0.00498 | inactive
PKIA (cAMP-dependent protein kinase inhibitor alpha) | 1 | 0.684 | 0.995 | 0.025 | -0.0048 | -0.039 | inactive
CDK5R1 (cyclin dependent kinase 5 regulatory subunit 1) | 1 | -0.921 | 0.847 | -0.0594 | -0.0277 | 0.0238 | inactive
LIMK2 (LIM domain kinase 2) | 1 | -0.84 | 0.855 | -0.0603 | -0.145 | -0.132 | inactive
MAST4 | 1 | 0.736 | 1 | -0.072 | 0 | 0.0116 | inactive
MVK (mevalonate kinase) | 1 | 0.736 | 1 | -0.0919 | 0 | -0.0382 | inactive
MAP4K3 (mitogen-activated protein kinase kinase kinase kinase 3) | 1 | 0.682 | 0.995 | -0.0199 | 0.0669 | 0.0256 | inactive
ILK (integrin linked kinase) | 1 | -0.0886 | 0.924 | -0.109 | -0.0761 | -0.139 | inactive
ILK (integrin linked kinase) | 2 | 0.736 | 1 | -0.033 | 0 | 0.0422 | inactive
DNMT3A (DNA methyltransferase 3 alpha) | 1 | -1.44 | 0.799 | 0.0324 | -0.0586 | -0.0736 | inactive
MAP4K1 (mitogen-activated protein kinase kinase kinase kinase 1) | 1 | -1.76 | 0.769 | -0.0189 | -0.104 | 0.0296 | inactive
CILK1 (ciliogenesis associated kinase 1) | 1 | 0.736 | 1 | -0.0919 | 0 | -0.112 | inactive
NTRK1 (neurotrophic receptor tyrosine kinase 1) | 1 | -1.38 | 0.804 | -0.131 | -0.0237 | -0.014 | inactive
CDK4 (cyclin dependent kinase 4) | 1 | 0.354 | 0.965 | -0.0902 | 0.0131 | -0.071 | inactive
MAP3K7 (mitogen-activated protein kinase kinase kinase 7) | 1 | 0.2 | 0.951 | -0.0222 | -0.0494 | 0.00703 | inactive
CAMK1D (calcium/calmodulin dependent protein kinase ID) | 1 | 0.288 | 0.959 | -0.0247 | -0.0387 | -0.0512 | inactive
MSR1 (macrophage scavenger receptor 1) | 1 | 0.736 | 1 | 0.0218 | 0.0584 | 0.0224 | inactive
PDGFRA (platelet derived growth factor receptor alpha) | 1 | 0.438 | 0.973 | 0.0661 | 0.0519 | 0.107 | inactive
CASK (calcium/calmodulin dependent serine protein kinase) | 1 | 0.581 | 0.986 | 0.0255 | 0.0673 | 0.000329 | inactive
CSNK2A2 (casein kinase 2 alpha 2) | 1 | -0.991 | 0.841 | -0.113 | -0.113 | -0.048 | inactive
PFKL (phosphofructokinase, liver type) | 1 | -0.278 | 0.906 | 0.00597 | -0.0815 | -0.114 | inactive
NUAK2 (NUAK family kinase 2) | 1 | 0.468 | 0.975 | -0.0349 | 0.0761 | -0.0163 | inactive
SGK2 (serum/glucocorticoid regulated kinase 2) | 1 | 0.736 | 1 | 0.0545 | 0.00757 | 0.0742 | inactive
AK7 (adenylate kinase 7) | 1 | -0.725 | 0.865 | -0.125 | -0.0203 | -0.0588 | inactive
CRIM1 (cysteine rich transmembrane BMP regulator 1) | 1 | -0.55 | 0.881 | -0.102 | -0.0944 | -0.0673 | inactive
MAP3K21 (mitogen-activated protein kinase kinase kinase 21) | 1 | 0.736 | 1 | -0.0278 | 0.0863 | 0.0585 | inactive
PKMYT1 (protein kinase, membrane associated tyrosine/threonine 1) | 1 | -0.259 | 0.908 | 0.00963 | -0.0223 | 0.0629 | inactive
DYRK1A | 1 | 0.419 | 0.971 | -0.00818 | -0.0293 | -0.0203 | inactive
PRPS1L1 (phosphoribosyl pyrophosphate synthetase 1 like 1) | 1 | 0.0962 | 0.941 | 0.014 | 0.0194 | 0.059 | inactive
BUB1 (BUB1 mitotic checkpoint serine/threonine kinase) | 1 | 0.736 | 1 | 0.132 | 0.13 | 0.0416 | inactive
CLK2 (CDC like kinase 2) | 1 | 0.596 | 0.987 | -0.0691 | -0.0129 | 0.0204 | inactive
DYRK2 (dual specificity tyrosine phosphorylation regulated kinase 2) | 1 | 0.488 | 0.977 | 0.0645 | 0.0244 | 0.112 | inactive
CLK3 (CDC like kinase 3) | 1 | 0.736 | 1 | -0.0119 | 0 | 0.0501 | inactive
MAPKAPK3 (MAPK activated protein kinase 3) | 1 | -0.0703 | 0.926 | 0.0166 | 0.0497 | -0.0103 | inactive
NRBP1 (nuclear receptor binding protein 1) | 1 | 0.736 | 1 | -0.0331 | 0 | -0.0229 | inactive
MAP2K2 (mitogen-activated protein kinase kinase 2) | 1 | 0.248 | 0.955 | 0.064 | 0.0319 | 0.125 | inactive
ACVR2B (activin A receptor type 2B) | 1 | -1.07 | 0.833 | -0.0933 | -0.167 | -0.0814 | inactive
CALM3 (calmodulin 3) | 1 | 0.485 | 0.977 | -0.0694 | -0.0231 | -0.0367 | inactive
DAPK2 (death associated protein kinase 2) | 1 | 0.118 | 0.943 | 0.0189 | -0.027 | 0.0163 | inactive
TNK1 (tyrosine kinase non receptor 1) | 1 | 0.531 | 0.981 | 0.0699 | 0.0208 | -0.00767 | inactive
ADCK5 (aarF domain containing kinase 5) | 1 | 0.736 | 1 | 0.0441 | 0.000543 | 0.132 | inactive
CSF1R (colony stimulating factor 1 receptor) | 1 | 0.736 | 1 | 0.061 | 0.0764 | 0.169 | inactive
IKBKB (inhibitor of nuclear factor kappa B kinase subunit beta) | 1 | -0.649 | 0.872 | -0.0691 | -0.103 | -0.0735 | inactive
PIKFYVE (phosphoinositide kinase, FYVE-type zinc finger containing) | 1 | -1.48 | 0.796 | 0.0273 | 0.00264 | -0.0664 | inactive

Laid out differently: entries from further up
{"target":"CDK5R1 (cyclin dependent kinase 5 regulatory subunit 1)","reagent no.":1,"viability robust z-score, no drug":-0.921,"viability vs control, no drug":0.847,"synergy score with BYL719":-0.0594,"synergy score with cetuximab":-0.0277,"synergy score with trametinib":0.0238,"activity call":"inactive"}
{"target":"LIMK2 (LIM domain kinase 2)","reagent no.":1,"viability robust z-score, no drug":-0.84,"viability vs control, no drug":0.855,"synergy score with BYL719":-0.0603,"synergy score with cetuximab":-0.145,"synergy score with trametinib":-0.132,"activity call":"inactive"}
{"target":"MAST4","reagent no.":1,"viability robust z-score, no drug":0.736,"viability vs control, no drug":1,"synergy score with BYL719":-0.072,"synergy score with cetuximab":0,"synergy score with trametinib":0.0116,"activity call":"inactive"}
{"target":"MVK (mevalonate kinase)","reagent no.":1,"viability robust z-score, no drug":0.736,"viability vs control, no drug":1,"synergy score with BYL719":-0.0919,"synergy score with cetuximab":0,"synergy score with trametinib":-0.0382,"activity call":"inactive"}
{"target":"MAP4K3 (mitogen-activated protein kinase kinase kinase kinase 3)","reagent no.":1,"viability robust z-score, no drug":0.682,"viability vs control, no drug":0.995,"synergy score with BYL719":-0.0199,"synergy score with cetuximab":0.0669,"synergy score with trametinib":0.0256,"activity call":"inactive"}
{"target":"ILK (integrin linked kinase)","reagent no.":1,"viability robust z-score, no drug":-0.0886,"viability vs control, no drug":0.924,"synergy score with BYL719":-0.109,"synergy score with cetuximab":-0.0761,"synergy score with trametinib":-0.139,"activity call":"inactive"}
